In article PMC6218562:

Molecular target: T1, Trf4 (S. cerevisiae (endogenous in yeast cells)) (UniProt P53632)
T1 sequence: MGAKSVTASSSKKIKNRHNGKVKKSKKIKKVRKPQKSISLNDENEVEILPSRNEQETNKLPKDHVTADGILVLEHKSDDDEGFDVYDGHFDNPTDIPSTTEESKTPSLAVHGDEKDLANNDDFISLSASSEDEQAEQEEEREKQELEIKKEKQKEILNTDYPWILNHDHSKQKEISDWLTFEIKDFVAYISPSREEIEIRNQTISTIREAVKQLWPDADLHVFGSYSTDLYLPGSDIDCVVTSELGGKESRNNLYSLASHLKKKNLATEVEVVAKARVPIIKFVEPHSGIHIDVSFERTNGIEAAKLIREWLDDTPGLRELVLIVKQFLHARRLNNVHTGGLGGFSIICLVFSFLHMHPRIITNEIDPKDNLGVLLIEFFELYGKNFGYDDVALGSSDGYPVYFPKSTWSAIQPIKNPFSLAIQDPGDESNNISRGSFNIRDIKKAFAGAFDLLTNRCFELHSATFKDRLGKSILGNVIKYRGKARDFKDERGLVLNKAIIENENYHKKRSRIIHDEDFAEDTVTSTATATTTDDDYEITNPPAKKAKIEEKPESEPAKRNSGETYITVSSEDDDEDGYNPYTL
Assay: co-IP; non-TAP co-IP from cleared yeast lysates of Pbp1-1Q and Pbp1-30Q cells: 2 μg antibody 2 h at 4 °C, then Protein-A sepharose beads 1 h at 4 °C; same lysis buffer; western blot

binding: binds
Substance: Ty1 Gag protein (S. cerevisiae)

These are yes or no findings as the source states them, for the method shown. Binding seen in cells or lysates may run through a third protein. Binding calls can cover weak binding; strength is not graded here.
